The list does not hold the whole screen: its compounds were picked by chemical class. Other doses and runs of a compound may be missing. T/C: endpoint of the treated group in % of that of the vehicle group. For survival time, this PubChem deposit counts one and a half times the control or more as active, and values a quarter to a half above the control carry no call in these data; other NCI protocols may use other cut-offs. Schedules are NCI's codes, read here as Q, the interval in days (D) or hours (H), X, the number of doses. Some T/C values are marked as having no survivor count here; that says nothing about deaths at the dose.
System: BDF1 mice, B16 melanoma s.c., survival/tumor T/C
Test: NCI In Vivo Anticancer Drug Screen. Data for tumor model B16 Melanoma (subcutaneous) in B6D2F1 (BDF1) mice
Conditions: T/C endpoint: median survival time, schedule: Q01DX009 (ip), higher T/C = longer survival
Procedure: The antitumor activity of compounds was measured in mice bearing transplantable tumors. Survival or tumor size were measured and the results are expressed as the measurement made in the treated group (T) divided by the measurement made in the vehicle treated control group (C). The tumor model used in this assay is B16 Melanoma (subcutaneous) in B6D2F1 (BDF1) mice

Row | Structure (SMILES) | T/C (dose: 0.03 mg/kg/injection, vehicle: saline) | T/C (dose: 0.06 mg/kg/injection, vehicle: saline) | T/C (dose: 0.12 mg/kg/injection, vehicle: saline) | T/C (dose: 0.25 mg/kg/injection, vehicle: saline) | T/C (dose: 0.5 mg/kg/injection, vehicle: saline) | T/C (dose: 1.0 mg/kg/injection, vehicle: saline) | T/C (dose: 2.0 mg/kg/injection, vehicle: saline) | T/C (dose: 6.25 mg/kg/injection, vehicle: saline with Tween-80) | T/C (dose: 12.5 mg/kg/injection, vehicle: saline with Tween-80) | T/C (dose: 50.0 mg/kg/injection, vehicle: saline with Tween-80)
1 | NC(Cc1ccc(O)c(N(CCCl)CCCl)c1)C(=O)O (stereo not given) | 97 % of control [survivor count not shown] | 106 % of control [survivor count not shown] | 102 % of control [survivor count not shown] | 100 % of control [survivor count not shown] | 110 % of control [survivor count not shown] | 104 % of control [survivor count not shown] | 114 % of control [survivor count not shown] | – | – | –
2 | O=NN(CCSCCCl)C(=O)NC1CCCCC1 | – | – | – | – | – | – | – | 131 % of control | 102 % of control | 142 % of control

Reference: PubChem BioAssay AID194 (DTP/NCI, 2004)
